Record: PubChem BioAssay AID1224830 (NIAID, 2016)

- Screen: 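Regulators of TLR4 signalling towards TNF-alpha in macrophage-like cells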 (primary screen)
- Cells: human THP-1 monocytic leukaemia cells, TNF dual-luciferase reporter clone, PMA-differentiated to macrophage-like cells
- Reagent: siRNA pool against human genes, 50 nM
- Time to read-out: LPS for 4 h, given about 3 days after siRNA transfection
- Treatment: bacterial LPS (TLR4 ligand), 10 ng/ml
- Measurement: 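Ratio of firefly to renilla light, scaled to the plate median and expressed as a robust z-score per replicate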
- Direction: TNF reporter robust z-score: higher = stronger TNF reporter response to LPS
- Call rule: 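Each well counts as active if its z-score is over 2.8 or under -1.5; controls are left without a call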
The deposit covers about 18,000 reagents; below is a random part of them. About 2,900 of all reagents (16%) count as active. 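Calls are made per well; low scores hint the gene aids the LPS response, high scores that it dampens it.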 Repeated entries: four replicate wells of each siRNA pool.

Target gene,TNF reporter robust z-score,call
SERPINB8,-0.3,inactive
SERPINB8,0.12,inactive
SERPINB8,0.57,inactive
SERPINB8,0,inactive
TSGA10IP,1.49,inactive
TSGA10IP,1.41,inactive
TSGA10IP,1.32,inactive
TSGA10IP,1.65,inactive
C1orf87,-0.32,inactive
C1orf87,0.9,inactive
C1orf87,0.4,inactive
C1orf87,0.73,inactive
PPP2R5C,1.1,inactive
PPP2R5C,2.19,inactive
PPP2R5C,1.64,inactive
PPP2R5C,3.33,active
GARNL3,2.34,inactive
GARNL3,0.85,inactive
GARNL3,1.14,inactive
GARNL3,2.31,inactive
SPDEF,-0.79,inactive
SPDEF,-0.5,inactive
SPDEF,-0.7,inactive
SPDEF,0.76,inactive
IL17REL,1.13,inactive
IL17REL,1.03,inactive
IL17REL,1.9,inactive
IL17REL,1.31,inactive
GDF3,0.06,inactive
GDF3,0.77,inactive
GDF3,-0.11,inactive
GDF3,4,active
ZBP1,1.09,inactive
ZBP1,1.77,inactive
ZBP1,0.66,inactive
ZBP1,0.94,inactive
MAL,2.82,active
MAL,1.51,inactive
MAL,0.9,inactive
MAL,-0.92,inactive
SMC3,3.42,active
SMC3,6.73,active
SMC3,5.25,active
SMC3,1.99,inactive
MTRR,-0.76,inactive
MTRR,0.17,inactive
MTRR,-0.81,inactive
MTRR,-0.89,inactive
OR1E1,1.77,inactive
OR1E1,-1.31,inactive
OR1E1,-0.78,inactive
OR1E1,-0.4,inactive
PHF5A,-2.05,active
PHF5A,-1.6,active
PHF5A,-1.89,active
PHF5A,-0.59,inactive
SEMA6D,0.86,inactive
SEMA6D,0.38,inactive
SEMA6D,-0.79,inactive
SEMA6D,1.49,inactive
CDC7,0.54,inactive
CDC7,0.15,inactive
CDC7,-0.15,inactive
BUB1B,-1.18,inactive
BUB1B,-1.12,inactive
BUB1B,-1.22,inactive
BUB1B,-0.77,inactive
RHAG,0.3,inactive
RHAG,0.84,inactive
RHAG,0.66,inactive
VSTM1,-1.19,inactive
VSTM1,-0.9,inactive
VSTM1,-1.5,inactive
NECAP2,1.29,inactive
NECAP2,2.48,inactive
NECAP2,1.43,inactive
NECAP2,4.2,active
KISS1R,0.08,inactive
KISS1R,-0.92,inactive
KISS1R,-0.69,inactive
KISS1R,-0.43,inactive
SMO,-0.23,inactive
SMO,-0.26,inactive
SMO,-0.33,inactive
SMO,-1.01,inactive
UBE2V1,-0.49,inactive
UBE2V1,1.07,inactive
UBE2V1,-0.03,inactive
UBE2V1,-0.95,inactive
CALML4,-0.29,inactive
CALML4,-0.44,inactive
CALML4,-0.81,inactive
CALML4,-0.39,inactive
GLIPR2,-1.14,inactive
GLIPR2,-1.63,active
GLIPR2,-0.94,inactive
GLIPR2,-0.54,inactive
LRRC25,1.14,inactive
LRRC25,0.64,inactive
LRRC25,-0.42,inactive
LRRC25,-0.63,inactive
CERS4,-0.01,inactive
CERS4,1.18,inactive
CERS4,1.75,inactive
CERS4,0.18,inactive
LASP1,-0.69,inactive
LASP1,-0.6,inactive
LASP1,-1.28,inactive
LASP1,0.25,inactive
DOK1,0.64,inactive
DOK1,-0.31,inactive
DOK1,-0.29,inactive
DOK1,0.44,inactive
EDRF1,-0.69,inactive
EDRF1,-0.35,inactive
EDRF1,0.76,inactive
SCD,-0.75,inactive
SCD,0.7,inactive
SCD,-1.34,inactive
SCD,0.76,inactive
ZNF334,-0.18,inactive
ZNF334,0.13,inactive
ZNF334,0.55,inactive
ZNF334,-0.64,inactive
ATP5ME,-0.9,inactive
ATP5ME,0.24,inactive
ATP5ME,-1.03,inactive
ATP5ME,0.55,inactive
TIMM10,-1.12,inactive
TIMM10,-0.78,inactive
TIMM10,-1,inactive
TIMM10,-1.05,inactive
RNF150,-0.63,inactive
RNF150,-0.21,inactive
RNF150,0.07,inactive
RNF150,0.25,inactive
IGF1,-0.98,inactive
IGF1,-0.17,inactive
IGF1,-0.25,inactive
IGF1,-0.71,inactive

Reformatted: 12 of the entries above
Target gene | TNF reporter robust z-score | call
ZBP1 | 1.09 | inactive
ZBP1 | 1.77 | inactive
ZBP1 | 0.66 | inactive
ZBP1 | 0.94 | inactive
MAL | 2.82 | active
MAL | 1.51 | inactive
MAL | 0.9 | inactive
MAL | -0.92 | inactive
SMC3 | 3.42 | active
SMC3 | 6.73 | active
SMC3 | 5.25 | active
SMC3 | 1.99 | inactive
